# Taken from: PubChem BioAssay AID652243 (Drosophila RNAi Screening Center, 2013)
# Test: 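Fly regulators of androgen-dependent reporter output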 (primary screen)
# Cell system: Drosophila S2R+ cells
# Reagent: long dsRNA against Drosophila genes
# Duration: 72 h (48 h, then 24 h hormone)
# Treatment: synthetic androgen R1881 at 10 nM for 24 h
# Measurement: 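Firefly light from an androgen-responsive reporter and Renilla control light per well, raw and unnormalised, for each of two replicates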
# Reading the numbers: firefly reporter light: higher = more light from androgen-responsive reporter; Renilla control light: higher = more constitutive control signal (cell number, transfection)
# Rule for the call: 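Hit when the log firefly-to-Renilla ratio dropped or increased by a fixed fold versus the mean of GFP or LacZ controls across duplicate plates; lowering cut given as 1.5 and as 3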
# Meaning of the calls: active = hit: reporter lowered or raised; inactive = no hit
# The deposit covers about 24,000 reagents; this is an unselected part of those that have a named target and a result. Of all reagents, 246 (1%) were called active. 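Plates not normalised; calls are printed but the firefly/Renilla ratio behind them is not deposited; fold cut for lowering reported inconsistently.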 The raw values are shown without normalisation. Not given: the amount of reagent.
gene knocked down,amplicon,"firefly reporter light, replicate 1","firefly reporter light, replicate 2","Renilla control light, replicate 1","Renilla control light, replicate 2",Outcome
CG13321,DRSC06358,3.68e5,2.97e5,1.62e6,2.00e6,inactive
CG13321,DRSC27458,6.28e5,5.24e5,8.40e5,9.35e5,inactive
CG6788,DRSC20007,4.50e5,4.55e5,3.69e6,3.85e6,inactive
CG6788,DRSC24906,6.47e5,6.72e5,7.09e5,7.99e5,inactive
CG2129,DRSC18209,41201,24383,2.73e5,2.80e5,inactive
CG2129,DRSC24934,7.04e5,5.86e5,3.25e5,5.14e5,inactive
CG31516,DRSC11994,2.50e5,1.51e5,6.73e5,6.15e5,inactive
Sid,DRSC16588,2.07e5,2.17e5,2.49e6,3.11e6,inactive
Sid,DRSC26318,3.87e5,4.97e5,5.04e5,7.58e5,inactive
Sara,DRSC04653,1.95e5,2.97e5,1.26e6,1.42e6,inactive
Vha26,DRSC12371,19760,30580,2.83e5,2.96e5,inactive
Vha26,DRSC25503,4.84e5,4.36e5,1.67e6,7.01e5,inactive
Vha26,DRSC38973,9.98e5,6.02e5,1.51e6,1.11e6,inactive
al,DRSC00799,6.47e5,6.93e5,1.64e6,1.86e6,inactive
CG1999,DRSC18199,90401,55454,3.95e5,3.78e5,inactive
CG1999,DRSC29137,7.69e5,6.38e5,1.00e6,8.88e5,inactive
r2d2,DRSC03014,1.89e5,1.69e5,1.84e6,1.49e6,inactive
r2d2,DRSC29562,2.29e5,2.26e5,5.37e5,5.37e5,inactive
Patr-1,DRSC14159,18567,18387,2.78e5,3.49e5,active
Patr-1,DRSC26481,3.25e5,1.82e5,7.52e5,6.88e5,inactive
IntS8,DRSC07417,9.86e5,1.31e6,1.76e6,1.68e6,inactive
sti,DRSC09739,2.27e5,2.06e5,1.47e6,1.46e6,active
sti,DRSC09740,2.35e5,1.86e5,1.90e6,1.42e6,inactive
sti,DRSC37065,,,,,inactive
CG13369,DRSC18481,1.71e5,2.33e5,3.16e6,2.23e6,inactive
CG13369,DRSC29455,7.73e5,6.45e5,9.16e5,9.16e5,inactive
CG13369,DRSC39309,,,,,inactive
CG9590,DRSC16506,1.16e5,1.21e5,6.50e5,7.10e5,inactive
crc,DRSC03513,1.77e5,1.64e5,1.38e6,8.83e5,inactive
CG31998,DRSC17137,53823,38347,6.33e5,3.25e5,inactive
CG31998,DRSC17138,2.12e5,2.17e5,1.82e6,2.54e6,inactive
lncRNA:CR32027,DRSC09571,2.03e5,4.17e5,94207,97095,inactive
Sirt7,DRSC14294,61143,76905,6.66e5,4.19e5,inactive
Sirt7,DRSC26219,4.75e5,4.41e5,8.17e5,8.30e5,inactive
NijA,DRSC10637,2.14e5,1.81e5,3.22e6,2.27e6,inactive
CG6565,DRSC02970,3.94e5,8.77e5,1.60e6,2.68e6,inactive
Teh3,DRSC08537,92008,1.32e5,9.48e5,1.06e6,inactive
Teh3,DRSC29472,3.23e5,4.59e5,8.58e5,8.58e5,inactive
CG9393,DRSC16486,64174,73158,2.67e5,3.87e5,inactive
CG13707,DRSC08316,1.82e5,1.81e5,1.72e6,2.21e6,inactive

Ordered by “Renilla control light, replicate 2” (descending): some entries from above
gene knocked down,amplicon,"firefly reporter light, replicate 1","firefly reporter light, replicate 2","Renilla control light, replicate 1","Renilla control light, replicate 2",Outcome
al,DRSC00799,6.47e5,6.93e5,1.64e6,1.86e6,inactive
CG1999,DRSC29137,7.69e5,6.38e5,1.00e6,8.88e5,inactive
CG1999,DRSC18199,90401,55454,3.95e5,3.78e5,inactive
